Measured values reported in article PMC6755995.
Results are given in words; binding and its absence hold for the method and conditions named. In cells and extracts the contact can be indirect. Some entries that bind do so weakly or less than the wild type.

Chains of the proteins cited; added tags and fusions are not shown.
UniProt Q8N371: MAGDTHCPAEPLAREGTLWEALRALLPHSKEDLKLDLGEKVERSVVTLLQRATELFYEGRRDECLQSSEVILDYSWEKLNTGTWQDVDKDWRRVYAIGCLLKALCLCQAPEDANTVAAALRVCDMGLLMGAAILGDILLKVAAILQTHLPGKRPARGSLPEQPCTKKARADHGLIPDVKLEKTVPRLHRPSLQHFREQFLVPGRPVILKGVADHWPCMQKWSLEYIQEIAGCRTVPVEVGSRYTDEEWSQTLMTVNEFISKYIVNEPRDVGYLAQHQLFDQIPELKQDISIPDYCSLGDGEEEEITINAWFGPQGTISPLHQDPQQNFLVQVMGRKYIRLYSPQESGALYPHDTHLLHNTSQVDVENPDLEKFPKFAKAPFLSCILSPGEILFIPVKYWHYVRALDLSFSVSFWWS
UniProt P14618: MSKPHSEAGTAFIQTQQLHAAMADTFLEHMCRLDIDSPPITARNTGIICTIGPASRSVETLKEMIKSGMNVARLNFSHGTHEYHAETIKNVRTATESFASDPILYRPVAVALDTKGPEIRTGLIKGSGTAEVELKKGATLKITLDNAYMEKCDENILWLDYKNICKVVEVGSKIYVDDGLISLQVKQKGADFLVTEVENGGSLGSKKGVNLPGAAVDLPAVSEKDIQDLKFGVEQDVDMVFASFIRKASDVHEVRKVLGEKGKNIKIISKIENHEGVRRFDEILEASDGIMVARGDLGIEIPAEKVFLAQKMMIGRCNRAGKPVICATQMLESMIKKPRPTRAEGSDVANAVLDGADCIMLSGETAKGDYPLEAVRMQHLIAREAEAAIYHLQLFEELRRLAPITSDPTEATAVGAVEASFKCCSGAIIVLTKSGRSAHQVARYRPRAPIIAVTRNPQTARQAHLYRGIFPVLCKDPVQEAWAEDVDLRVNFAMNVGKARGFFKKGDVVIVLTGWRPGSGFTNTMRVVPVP
UniProt P10275: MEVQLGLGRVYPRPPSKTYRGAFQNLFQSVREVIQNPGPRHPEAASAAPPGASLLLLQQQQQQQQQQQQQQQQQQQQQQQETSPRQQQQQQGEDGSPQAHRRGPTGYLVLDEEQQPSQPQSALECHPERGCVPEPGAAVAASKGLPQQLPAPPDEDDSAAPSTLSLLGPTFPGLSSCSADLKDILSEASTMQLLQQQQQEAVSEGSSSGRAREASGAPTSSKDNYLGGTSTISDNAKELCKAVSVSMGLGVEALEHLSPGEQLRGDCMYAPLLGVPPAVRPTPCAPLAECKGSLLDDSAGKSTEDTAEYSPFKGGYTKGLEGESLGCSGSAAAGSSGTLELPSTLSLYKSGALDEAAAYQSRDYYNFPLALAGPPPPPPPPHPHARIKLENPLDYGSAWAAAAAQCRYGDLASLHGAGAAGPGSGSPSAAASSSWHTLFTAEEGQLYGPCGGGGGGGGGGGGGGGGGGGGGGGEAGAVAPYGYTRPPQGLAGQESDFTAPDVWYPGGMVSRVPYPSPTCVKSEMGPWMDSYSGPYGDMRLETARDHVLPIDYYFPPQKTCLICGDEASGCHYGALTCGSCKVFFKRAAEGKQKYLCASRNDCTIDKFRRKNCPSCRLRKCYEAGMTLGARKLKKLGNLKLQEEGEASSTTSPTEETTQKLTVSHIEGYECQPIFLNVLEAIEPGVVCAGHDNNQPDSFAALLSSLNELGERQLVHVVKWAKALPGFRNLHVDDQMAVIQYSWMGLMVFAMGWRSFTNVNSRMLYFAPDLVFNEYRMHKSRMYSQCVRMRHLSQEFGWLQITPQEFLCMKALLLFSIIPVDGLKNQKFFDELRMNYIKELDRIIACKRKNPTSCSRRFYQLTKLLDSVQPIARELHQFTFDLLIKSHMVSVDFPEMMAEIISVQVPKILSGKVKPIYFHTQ

Columns and labels:
Test in all cases: co-IP; endogenous proteins in LNCaP cell lysate; immunoprecipitation and immunoblotting with PKM2, KDM8 and AR antibodies; control IgG
[1] = biological target: KDM8/JMJD5, endogenous in LNCaP cells (human (endogenous in LNCaP)) (UniProt Q8N371)
[2] = biological target: PKM2 (pyruvate kinase M2), endogenous in LNCaP cells (human (endogenous in LNCaP)) (UniProt P14618)
[3] = biological target: AR (androgen receptor), endogenous in LNCaP cells (human (endogenous in LNCaP)) (UniProt P10275)

Row | binding [1] | binding [2] | binding [3] | Substance
1 | binds |  |  | PKM2 (pyruvate kinase M2), endogenous in LNCaP cells (from UniProt P14618 1-531)
2 |  | binds | binds | KDM8/JMJD5, endogenous in LNCaP cells (from UniProt Q8N371 1-416)
